Laboratory results: patent US8642555B2, “Prodrugs” (KTB Tumorforschungsgesellschaft mbH, priority 2009, dated 2014)
Not every detail of the peptide structures is certain; ends, links or a residue may be inferred. Numbered stars: 1 amine (or outer) side, 2 acyl side, 3 side chain; on linkers, the order of the positions; unused ones are H or OH. Square brackets hold non-standard residues; d marks the D form. Peptide text beside a SMILES is read from it. * marks the point of attachment. ξ: configuration not given here. X1 = COc1cccc2c1C(=O)c1c(O)c3c(c(O)c1C2=O)C[C@@](O)(C(=O)CO)CC3O[C@H]1C[C@@H](N*)C(O)[C@H](C)O1; Hexanoyl(6-maleimido) = O=C1C=CC(=O)N1CCCCCC(=O)*; PABC = O=C(OCc1ccc(N[*:1])cc1)[*:2]; ξY = NC(Cc1ccc(O)cc1)C(=O)O; ξR = N=C(N)NCCCC(N)C(=O)O; ξL = CC(C)CC(N)C(=O)O; ξS = NC(CO)C(=O)O

By UniProt entry, the sequences of proteins in these tests, tags left out. Residues count along the entry.
UniProt P07288, 25-261: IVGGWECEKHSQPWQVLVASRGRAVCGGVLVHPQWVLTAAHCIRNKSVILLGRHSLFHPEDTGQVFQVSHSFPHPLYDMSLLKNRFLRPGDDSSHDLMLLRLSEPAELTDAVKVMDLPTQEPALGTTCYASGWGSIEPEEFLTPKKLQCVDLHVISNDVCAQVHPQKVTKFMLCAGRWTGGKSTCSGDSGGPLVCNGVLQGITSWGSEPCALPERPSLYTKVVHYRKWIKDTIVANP

Molecular target: T1, PSA (Homo sapiens, UniProt P07288)
T1 construct: was incubated with enzymatically active PSA (20 μg/mL) at 37° C
Experiment: Enzymatic cleavage of the albumin-bound form by PSA, HPLC-monitored
Format: biochemical
Conditions: albumin-bound form 100 μM, PSA 20 μg/mL, 37° C.

Row | Compound | PSA-mediated cleavage of the albumin-bound form liberating the drug-dipeptide
1 | COc1cccc2c1C(=O)c1c(O)c3c(c(O)c1C2=O)C[C@@](O)(C(=O)CO)CC3O[C@H]1C[C@@H](NC(=O)OCc2ccc(NC(=O)C(CC(C)C)NC(=O)C(CO)NC(=O)C(Cc3ccc(O)cc3)NC(=O)C(Cc3ccc(O)cc3)NC(=O)C(CO)NC(=O)C(CO)NC(=O)C(CCCNC(=N)N)NC(=O)CCCCCN3C(=O)C=CC3=O)cc2)C(O)[C@H](C)O1 (stereo partly drawn) [compound 6, EMC-Arg-Ser-Ser-Tyr-Tyr-Ser-Leu-PABC-DOXO] ({Hexanoyl(6-maleimido)}-[ξR][ξS][ξS][ξY][ξY][ξS][ξL][PABC]-X1) | cleaved efficiently within a few hours
2 | CC(=O)O[C@H]1C(=O)[C@@]2(C)C([C@H](OC(=O)c3ccccc3)[C@]3(O)C[C@H](OC(=O)[C@H](OC(=O)OCc4ccc(NC(=O)C(CC(C)C)NC(=O)C(CO)NC(=O)C(Cc5ccc(O)cc5)NC(=O)C(Cc5ccc(O)cc5)NC(=O)C(CO)NC(=O)C(CO)NC(=O)C(CCCNC(=N)N)NC(=O)CCCCCN5C(=O)C=CC5=O)cc4)[C@@H](NC(=O)c4ccccc4)c4ccccc4)C(C)=C1C3(C)C)[C@]1(OC(C)=O)CO[C@@H]1C[C@@H]2O (stereo partly drawn) [compound 10, EMC-Arg-Ser-Ser-Tyr-Tyr-Ser-Leu-PABC-Paclitaxel] | cleaved efficiently within a few hours
